{
  "source": "patent US20020052365A1",
  "about": "“Selective anxiolytic therapeutic agents” (priority 2000, published 2002)",
  "tested_on": "wild type, α2(H101R) and α3(H126R) mice",
  "conditions": "wild type mice, fixed 2 rpm, diazepam 3, 10, 30 mg/kg p.o.",
  "text": "Female wild-type and mutant mice were raised in the test rooms and behaviorally tested during the dark period of the 1 2-hr light/dark cycle.",
  "data": [
    {"compound": "CN1C(=O)CN=C(c2ccccc2)c2cc(Cl)ccc21", "note": "[diazepam]", "values": [
      {"measurement": "latency to fall off the rotating rod (motor impairment)", "value": "Dose-dependent decrease in the latency to fall off the rotating rod"}
    ]}
  ]
}
